This passage reports binding results from article PMC6070288.

Sequences of proteins named here, by UniProt entry; tags and fusion partners are left off. Residues count along the entry.
UniProt Q14416, residues 19-567: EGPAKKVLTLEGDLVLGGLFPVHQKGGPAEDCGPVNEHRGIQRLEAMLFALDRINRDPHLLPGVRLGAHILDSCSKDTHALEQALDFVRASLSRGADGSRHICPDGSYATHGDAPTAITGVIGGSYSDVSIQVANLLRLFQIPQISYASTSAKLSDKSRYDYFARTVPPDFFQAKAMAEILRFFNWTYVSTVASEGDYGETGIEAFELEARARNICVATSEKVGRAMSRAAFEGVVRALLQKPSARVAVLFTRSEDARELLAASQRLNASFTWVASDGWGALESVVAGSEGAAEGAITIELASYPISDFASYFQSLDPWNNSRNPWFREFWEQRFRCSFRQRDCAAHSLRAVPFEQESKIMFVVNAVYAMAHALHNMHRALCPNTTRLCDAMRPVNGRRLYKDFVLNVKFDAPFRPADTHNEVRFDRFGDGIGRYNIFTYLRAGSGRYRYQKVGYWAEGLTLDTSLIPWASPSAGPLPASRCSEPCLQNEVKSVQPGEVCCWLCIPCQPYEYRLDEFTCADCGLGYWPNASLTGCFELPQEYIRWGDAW
UniProt P03522, residues 17-511: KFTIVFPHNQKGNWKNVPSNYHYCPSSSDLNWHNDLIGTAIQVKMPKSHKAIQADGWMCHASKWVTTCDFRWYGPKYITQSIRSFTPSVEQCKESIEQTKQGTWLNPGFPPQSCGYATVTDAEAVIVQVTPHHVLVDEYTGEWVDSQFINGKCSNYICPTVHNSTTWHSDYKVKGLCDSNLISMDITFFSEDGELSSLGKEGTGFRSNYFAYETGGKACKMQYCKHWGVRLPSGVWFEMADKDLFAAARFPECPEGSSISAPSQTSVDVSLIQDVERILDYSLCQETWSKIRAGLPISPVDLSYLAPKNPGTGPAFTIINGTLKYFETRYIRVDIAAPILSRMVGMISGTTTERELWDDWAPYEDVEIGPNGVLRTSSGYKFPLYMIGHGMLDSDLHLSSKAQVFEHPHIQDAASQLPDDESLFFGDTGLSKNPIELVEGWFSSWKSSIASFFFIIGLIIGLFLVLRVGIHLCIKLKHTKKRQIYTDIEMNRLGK
UniProt P03524, residues 41-450: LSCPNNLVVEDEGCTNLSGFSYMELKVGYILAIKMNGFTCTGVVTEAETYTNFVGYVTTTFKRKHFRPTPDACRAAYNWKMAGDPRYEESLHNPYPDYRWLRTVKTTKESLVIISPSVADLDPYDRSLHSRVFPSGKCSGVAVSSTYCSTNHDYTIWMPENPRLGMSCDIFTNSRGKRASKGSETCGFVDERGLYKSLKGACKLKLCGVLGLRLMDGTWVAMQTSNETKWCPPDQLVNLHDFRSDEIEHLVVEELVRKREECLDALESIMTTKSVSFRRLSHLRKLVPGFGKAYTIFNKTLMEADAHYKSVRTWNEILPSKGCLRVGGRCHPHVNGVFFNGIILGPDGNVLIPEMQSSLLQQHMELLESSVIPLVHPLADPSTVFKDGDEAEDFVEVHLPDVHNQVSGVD

Assay [1] concerns the target N-terminal GST-tagged soluble ectodomain of mGluR2 (amino acids 19-567) (UniProt Q14416). Nature of the assay: pull-down; only the target purified.
Assay [2] has the same target. Nature of the assay: pull-down; both purified.

These are yes or no findings as the source states them, for the method shown. For some assays here: In cells and extracts the contact can be indirect. Some entries that bind do so weakly or less than the wild type.

With “Myc-tagged vesicular stomatitis virus G (from UniProt P03522 17-511)”, the binding result in assay [1] is on record as “no binding”. As to “N-terminal His-tagged ERA G protein ectodomain soluble protein (amino acids 41-450) (from UniProt P03524 41-450) (domain or fragment)”, in assay [2], the binding result is recorded as “binds”.
